From paper PMC5814396
Changes are numbered by the printed parent chain. Names and notes keep the numbering of the source. No constants are given. Whether binding was seen depends on the method and setting. Some entries that bind do so weakly or less than the wild type. Where a sequence is shown, tags or fusion partners need not be part of it.

Assays:
Assay in all cases: SDS-PAGE and anti-EGFP western blot (dimer band that survives SDS); biotinylated plasma-membrane fraction of groups of 15 cRNA-injected Xenopus oocytes, resolved on 3-8% Tris-Acetate gels; upper band taken as dimer that is kept during SDS-solubilization
[1] = biological target: wild-type NBCe1-A-EGFP (human) (UniProt Q9Y6R1)
[2] = biological target: NBCe1-A-EGFP Q913C (human) (UniProt Q9Y6R1)
[3] = biological target: NBCe1-A-EGFP Q913E (human) (UniProt Q9Y6R1)
[4] = biological target: NBCe1-A-EGFP Q913R (human) (UniProt Q9Y6R1)
[5] = biological target: NBCe1-A-EGFP Q913K (human) (UniProt Q9Y6R1)
[6] = biological target: NBCe1-A-EGFP Q913S (human) (UniProt Q9Y6R1)
[7] = biological target: NBCe1-A-EGFP Q913L (human) (UniProt Q9Y6R1)

B1: wild-type NBCe1-A-EGFP (protein, UniProt Q9Y6R1-2 1-1035)
chain: MSTENVEGKPSNLGERGRARSSTFLRVVQPMFNHSIFTSAVSPAAERIRFILGEEDDSPAPPQLFTELDELLAVDGQEMEWKETARWIKFEEKVEQGGERWSKPHVATLSLHSLFELRTCMEKGSIMLDREASSLPQLVEMIVDHQIETGLLKPELKDKVTYTLLRKHRHQTKKSNLRSLADIGKTVSSASRMFTNPDNGSPAMTHRNLTSSSLNDISDKPEKDQLKNKFMKKLPRDAEASNVLVGEVDFLDTPFIAFVRLQQAVMLGALTEVPVPTRFLFILLGPKGKAKSYHEIGRAIATLMSDEVFHDIAYKAKDRHDLIAGIDEFLDEVIVLPPGEWDPAIRIEPPKSLPSSDKRKNMYSGGENVQMNGDTPHDGGHGGGGHGDCEELQRTGRFCGGLIKDIKRKAPFFASDFYDALNIQALSAILFIYLATVTNAITFGGLLGDATDNMQGVLESFLGTAVSGAIFCLFAGQPLTILSSTGPVLVFERLLFNFSKDNNFDYLEFRLWIGLWSAFLCLILVATDASFLVQYFTRFTEEGFSSLISFIFIYDAFKKMIKLADYYPINSNFKVGYNTLFSCTCVPPDPANISISNDTTLAPEYLPTMSSTDMYHNTTFDWAFLSKKECSKYGGNLVGNNCNFVPDITLMSFILFLGTYTSSMALKKFKTSPYFPTTARKLISDFAIILSILIFCVIDALVGVDTPKLIVPSEFKPTSPNRGWFVPPFGENPWWVCLAAAIPALLVTILIFMDQQITAVIVNRKEHKLKKGAGYHLDLFWVAILMVICSLMALPWYVAATVISIAHIDSLKMETETSAPGEQPKFLGVREQRVTGTLVFILTGLSVFMAPILKFIPMPVLYGVFLYMGVASLNGVQFMDRLKLLLMPLKHQPDFIYLRHVPLRRVHLFTFLQVLCLALLWILKSTVAAIIFPVMILALVAVRKGMDYLFSQHDLSFLDDVIPEKDKKKKEDEKKKKKKKGSLDSDNDDSDCPYSEKVPSIKIPMDIMEQQPFLSDSKPSDRERSPTFLERHTSC
In the case of B1, the binding [1] is reported as “binds”.

B2: NBCe1-A-EGFP Q913C (protein, UniProt Q9Y6R1-2 1-1035)
chain: B1 chain with Q913C
B2 was tested, and the binding [2] was “binds”.

B3: NBCe1-A-EGFP Q913E (protein, UniProt Q9Y6R1-2 1-1035)
chain: B1 chain with Q913E
For B3, the binding [3] was “binds”.

B4: NBCe1-A-EGFP Q913R (protein, UniProt Q9Y6R1-2 1-1035)
chain: B1 chain with Q913R
For B4, the binding [4] was “binds”.

B5: NBCe1-A-EGFP Q913K (protein, UniProt Q9Y6R1-2 1-1035)
chain: B1 chain with Q913K
B5 was tested, and the binding [5] was “binds”.

B6: NBCe1-A-EGFP Q913S (protein, UniProt Q9Y6R1-2 1-1035)
chain: B1 chain with Q913S
With B6 the binding [6] was “binds”.

B7: NBCe1-A-EGFP Q913L (protein, UniProt Q9Y6R1-2 1-1035)
chain: B1 chain with Q913L
B7 was tested, and the binding [7] was “binds”.
